Results as given in patent publication US20240327456A1 (UNIVERSITAT DE BARCELONA, priority 2021, published 2024).

Assay: general procedure: Fmoc solid-phase peptide synthesis; 2-chlorotrityl chloride resin
Settings: whole synthesis, 220 nm, scale 100 μmol

## (S)-N-(3-(((S)-3-amino-1-((S)-4-methyl-1-oxo-1-(pyrrolidin-1-yl) pentan-2-ylamino)-1-oxopropan-2-yl)(methyl)amino)-3-oxopropyl)-3-(biphenyl-4-yl)-2-(2,2-diphenylacetamido)-N-methylpropanamide
  final HPLC purity: 95%
